Positions count from the first letter of the chain named. Results are given in words; binding and its absence hold for the method and conditions named. Some entries that bind do so weakly or less than the wild type. Values belong to the binder of their own block, whether it stands above or below them.
Assays:
[1] = target: His-tagged cynomolgus TIGIT (cynomolgus); experiment: SPR, purified antibody captured
[2] = target: His-tagged cynomolgus TIGIT (cynomolgus); experiment: SPR (BIAcore T200), antibody captured by goat anti-human pAb, His-tagged cynomolgus TIGIT injected in a dilution series

B1: TIGIT-6 chimeric antibody (antibody, human IgG1, kappa, V domains shown)
VH: QVQLKQSGPELVKPGASVKISCKTSGYTITENTMHWVKQSHGKSLEWIGGINPNNGGTSYNQQFKGKATLTVDKSSSTAYMELRSLTSEDSAVYYCTRSSYYRYDLDYWGQGTTVTVSS
VL: DIQMTQSHKFMSTSVGDRVSITCKASQDVKTALAWYQQKPGQSPKLLIYSASYRYTGVPDRFTGSGSGTDFTFTISSVQAEDLAVYYCHQHYTTPWTFGGGTKLEIKR
binding [1]: binds | binding [2]: binds

B2: TIGIT-19 chimeric antibody (antibody, human IgG1, kappa, V domains shown)
VH: QVQLQQPGPELVKPGTSVMLSCKASGYAFSRYSMYWVKQSHGKSLEWIAFIDPYNGGSTYNQRFRGKATLTVDKSSSTAYMHLNTLTSDDSAVYYCARGGDYGWYLGVWGAGTTVTVSS
VL: DIQMTQSPASLSASVGETVTITCRPSENIYTYLSWYQQKRGKSPQLLVYNAKTLPENVPSRFSGSGSGTQFSLKIDSLQPEDFGNYYCQHHYGNPLTFGAGTKLELKR
binding [2]: binds

B3: huTIGIT-6-1 (antibody, human IgG1, kappa, V domains shown)
VH: QVQLVQSGAEVKKPGASVKVSCKASGYTITENTMHWVRQAPGQRLEWIGGINPNQGGTSYSQKFQGRATLTVDTSASTAYMELSSLRSEDTAVYYCTRSSYYRYDLDYWGQGTTVTVSS
VL: DIQMTQSPSSLSASVGDRVTITCQASQDIKTALAWYQQKPGKAPKLLIYSASYRYTGVPSRFSGSGSGTDFTFTISSLQPEDIATYYCHQHYTTPWTFGGGTKLEIKR
binding [1]: binds | binding [2]: binds

B4: huTIGIT-6-2 (antibody, human IgG1, kappa, V domains shown)
VH: B3 VH with Q55N, G56A
VL: B3 VL
binding [1]: binds | binding [2]: binds

B5: huTIGIT-6-4 (antibody, human IgG1, kappa, V domains shown)
VH: B3 VH with I29F, T33A, Q55N, G56A
VL: B3 VL
binding [1]: binds | binding [2]: binds

B6: huTIGIT-6-3 (antibody, human IgG1, kappa, V domains shown)
VH: B3 VH with I29F, T33A
VL: B3 VL
binding [1]: binds | binding [2]: binds

B11: huTIGIT-3-1 (antibody, human IgG1, kappa, V domains shown)
VH: EVQLVESGGGLVQPGGSLRLSCAASGFTFSSYGMSWVRQAPGKGLELVATIKSSGGSTNLADSVKGRFTISRDNSKNTLYLQMNSLRAEDTAVYYCVRGYFDYWGQGTTVTVSS
VL: DIQMTQSPSSLSASVGDRVTITCRASQDIKTALAWYQQKPGKSPKLLIYWASTRQSGVPSRFSGSGSGTDFTLTISSLQPEDVATYYCQQYYSTPYTFGGGTKVEIKR
binding [1]: binds | binding [2]: binds

Results, then the binder that gave them:

binding [2]: binds
B7: huTIGIT-19-1 (antibody, human IgG1, kappa, V domains shown)
VH: QVQLVQSGAEVKKPGASVKVSCKASGYTFTRYSMYWVRQAPGQGLEWIAFIDAYSGGSTYNQRFRGKATLTVDTSISTAYMELSRLRSDDTAVYYCARGGDYGWYLGVWGQGTLVTVSS
VL: DIQMTQSPSSLSASVGDRVTITCRPSENIYTYLSWYQQKPGKAPKLLIYNAKSLPSGVPSRFSGSGSGTDFTLTISSLQPEDFATYYCQHHYGNPLTFGQGTKVEIKR

binding [2]: binds
B8: huTIGIT-19-3 (antibody, human IgG1, kappa, V domains shown)
VH: B7 VH with N61A, R63K, R65Q
VL: B7 VL

binding [2]: binds
B9: huTIGIT-19-4 (antibody, human IgG1, kappa, V domains shown)
VH: B7 VH with N61A, R63K, R65Q
VL: B7 VL with P25A, E27Q, N28S, T31S

binding [2]: binds
B10: huTIGIT-19-2 (antibody, human IgG1, kappa, V domains shown)
VH: B7 VH
VL: B7 VL with P25A, E27Q, N28S, T31S
